No constants are given. Whether binding was seen depends on the method and setting. Binding seen in cells or lysates may run through a third protein. For some assays here: Binding calls can cover weak binding; strength is not graded here.
What was measured:
[1] = molecular target: T1, Salmonella guanine nucleotide exchange factor (GEF) SopE (Salmonella enterica serovar Typhimurium) (UniProt O52623); experiment: pull-down; PL beads decorated with purified SopE or ARNO in porcine brain extract with GTPγS that was preincubated with purified PBD or GAT; Coomassie-stained SDS-PAGE of the bead-bound proteins; both purified
T1 sequence: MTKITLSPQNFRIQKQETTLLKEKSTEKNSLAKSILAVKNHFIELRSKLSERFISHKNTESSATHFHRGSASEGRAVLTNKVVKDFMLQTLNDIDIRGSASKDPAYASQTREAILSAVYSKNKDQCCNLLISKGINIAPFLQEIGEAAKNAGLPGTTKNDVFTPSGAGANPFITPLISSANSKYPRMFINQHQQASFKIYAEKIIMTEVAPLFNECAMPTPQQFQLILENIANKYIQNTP

[2] = molecular target: T1, Salmonella guanine nucleotide exchange factor (GEF) SopE (Salmonella enterica serovar Typhimurium); experiment: pull-down; purified GEF (SopE, ARNO or ARNO E156D) bound on silica beads coated with a phospholipid bilayer (PL beads), incubated in porcine brain extract with GTPγS (20 min, RT); beads isolated at 1000 g, washed ten times in HKSM; recruited proteins analysed by SDS-PAGE, mass spectrometry and immunoblotting; only the target purified

Substance	binding [1]	binding [2]
GAT^165–314 (domain or fragment)	no binding	
Rac1		binds

Reference: article PMC3314957
